Experimental data published in patent publication US20180201658A1 (MIT, published 2018).
These are yes or no findings as the source states them, for the method shown. Some entries that bind do so weakly or less than the wild type.

Sequences of proteins named here, by UniProt entry; tags and fusion partners are left off. Residues count along the entry.
UniProt Q07820, residues 172-327: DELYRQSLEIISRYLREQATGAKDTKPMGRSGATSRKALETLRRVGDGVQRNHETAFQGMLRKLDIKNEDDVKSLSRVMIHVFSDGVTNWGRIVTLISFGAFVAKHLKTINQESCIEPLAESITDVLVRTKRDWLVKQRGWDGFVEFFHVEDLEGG

Target: human Mcl-1 (human) (UniProt Q07820)
Assay: solution binding of N-terminal fluorescein peptide (FIG. 1)

Row | Binder | binding
1 | RPEIWMGQGLRRLGDEINAYYAR (N-terminal fluorescein) [A12 peptide with N-terminal fluorescein] | binds
2 | RPEIWLGQSLQRLGDEINAYYAR (N-terminal fluorescein) [B3 peptide with N-terminal fluorescein] | binds
